These are yes or no findings as the source states them, for the method shown. Binding seen in cells or lysates may run through a third protein. Some results given as binding are weak or reduced against the parent protein; the word gives no strength. Blank lines part the entries; values can stand above or below the molecule they belong to.
Molecular target: T1, NEK2 (human (endogenous in MDA-MB-231)) (UniProt P51955)
T1 sequence: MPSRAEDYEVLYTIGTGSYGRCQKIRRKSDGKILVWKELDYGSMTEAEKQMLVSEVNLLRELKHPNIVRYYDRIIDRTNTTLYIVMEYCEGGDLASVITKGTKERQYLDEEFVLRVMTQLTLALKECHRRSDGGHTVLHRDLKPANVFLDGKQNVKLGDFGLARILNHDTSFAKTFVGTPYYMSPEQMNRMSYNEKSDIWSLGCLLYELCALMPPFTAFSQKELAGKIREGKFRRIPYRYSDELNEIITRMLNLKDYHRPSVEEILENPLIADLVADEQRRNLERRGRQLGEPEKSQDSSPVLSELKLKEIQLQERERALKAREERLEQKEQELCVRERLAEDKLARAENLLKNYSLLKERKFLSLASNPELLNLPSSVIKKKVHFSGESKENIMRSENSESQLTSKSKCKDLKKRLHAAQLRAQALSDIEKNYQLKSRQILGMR
Assay: co-IP; nuclear extracts of MDA-MB-231 cells; anti-NEK2 antibody or control mouse IgG overnight at 4°C, Protein-G magnetic beads; washes with 20 mM HEPES pH 7.9, 15 mM MgCl2, 120 mM KCl, 0.2 mM EDTA, 25% glycerol; Western blot

Chains of the proteins cited; added tags and fusions are not shown.
UniProt P26599: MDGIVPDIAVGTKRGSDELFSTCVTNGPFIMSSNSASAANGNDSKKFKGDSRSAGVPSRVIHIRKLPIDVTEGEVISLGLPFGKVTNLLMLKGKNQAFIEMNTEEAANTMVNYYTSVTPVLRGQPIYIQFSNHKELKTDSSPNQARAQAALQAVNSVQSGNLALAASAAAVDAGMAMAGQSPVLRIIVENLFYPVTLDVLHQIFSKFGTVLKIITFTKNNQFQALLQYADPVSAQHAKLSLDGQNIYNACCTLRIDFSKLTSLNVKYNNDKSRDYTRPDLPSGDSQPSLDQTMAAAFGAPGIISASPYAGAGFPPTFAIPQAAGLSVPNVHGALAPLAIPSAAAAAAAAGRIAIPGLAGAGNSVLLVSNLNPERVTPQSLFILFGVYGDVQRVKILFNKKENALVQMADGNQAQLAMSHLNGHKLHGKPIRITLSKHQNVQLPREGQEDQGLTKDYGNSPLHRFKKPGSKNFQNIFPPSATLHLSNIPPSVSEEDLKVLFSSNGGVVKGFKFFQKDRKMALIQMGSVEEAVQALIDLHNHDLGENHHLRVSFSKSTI

- binding: binds
Molecule: PTBP1 (from UniProt P26599 1-557)

- binding: binds
B1: hnRNPL (protein, UniProt P14866 1-589)
chain: MSRRLLPRAEKRRRRLEQRQQPDEQRRRSGAMVKMAAAGGGGGGGRYYGGGSEGGRAPKRLKTDNAGDQHGGGGGGGGGAGAAGGGGGGENYDDPHKTPASPVVHIRGLIDGVVEADLVEALQEFGPISYVVVMPKKRQALVEFEDVLGACNAVNYAADNQIYIAGHPAFVNYSTSQKISRPGDSDDSRSVNSVLLFTILNPIYSITTDVLYTICNPCGPVQRIVIFRKNGVQAMVEFDSVQSAQRAKASLNGADIYSGCCTLKIEYAKPTRLNVFKNDQDTWDYTNPNLSGQGDPGSNPNKRQRQPPLLGDHPAEYGGPHGGYHSHYHDEGYGPPPPHYEGRRMGPPVGGHRRGPSRYGPQYGHPPPPPPPPEYGPHADSPVLMVYGLDQSKMNCDRVFNVFCLYGNVEKVKFMKSKPGAAMVEMADGYAVDRAITHLNNNFMFGQKLNVCVSKQPAIMPGQSYGLEDGSCSYKDFSESRNNRFSTPEQAAKNRIQHPSNVLHFFNAPLEVTEENFFEICDELGVKRPSSVKVFSGKSERSSSGLLEWESKSDALETLGFLNHYQMKNPNGPYPYTLKLCFSTAQHAS

- binding: no binding
B2: QKI (protein, UniProt Q96PU8 1-341)
chain: MVGEMETKEKPKPTPDYLMQLMNDKKLMSSLPNFCGIFNHLERLLDEEISRVRKDMYNDTLNGSTEKRSAELPDAVGPIVQLQEKLYVPVKEYPDFNFVGRILGPRGLTAKQLEAETGCKIMVRGKGSMRDKKKEEQNRGKPNWEHLNEDLHVLITVEDAQNRAEIKLKRAVEEVKKLLVPAAEGEDSLKKMQLMELAILNGTYRDANIKSPALAFSLAATAQAAPRIITGPAPVLPPAALRTPTPAGPTIMPLIRQIQTAVMPNGTPHPTAAIVPPGPEAGLIYTPYEYPYTLAPATSILEYPIEPSGVLGAVATKVRRHDMRVHPYQRIVTADRAATGN
